According to publication doi:10.1101/606285:
No constants are given. Whether binding was seen depends on the method and setting. Binding calls can cover weak binding; strength is not graded here. Tags and fused reporters may be left off the sequences shown.

B1: PATRONUS1 (PANS1), fused with the activating domain (AD) (protein, UniProt Q9LJG6 1-193)
chain: MANMNALQQMIFPDENAPIHRKKSVTAASVKSKGTVLGQKKPGGARKALNDITNKSGIHAKAAASSKNKQIASAAVKEIDIAGERFLHDHSKCIKEQQNLWDDHYSADLMLLHHGSSIKEKHLNWDIEKMDAKDDLTYEEPEEMASPKFSDWLKNSTPWRSPIRHGSMMPSTPLAWRFDSCEFTLKEDSDDLF
B2: PATRONUS2 (PANS2), fused with the activating domain (AD) (protein, UniProt Q94CK6 1-194)
chain: MANTILRGQMIFQDENALAALGKKAVAAGKGKSSLAAPKKNGAGFGSRKALHDITNKSKLQPQASSTTRKDVEGVDFDIAKEGFLHDHSKCIEEQQQDQWDSYFSEHIILHGHETNIKEGVPQYNNIQEIDAENSWDELKEIPMEEFSDLLECSTQWRSPPDSLSHHHSSLPSSPLPWHFETVEFKLKEDEDTT

How the values were obtained:
[1] = target: N-terminal domain of Arabidopsis SEPARASE, fused with the binding domain (BD) (Arabidopsis thaliana); assay: two-hybrid
[2] = target: APC/C activator subunit CDC20; assay: two-hybrid

Binder | binding [1] | binding [2]
B1 | binds | 
B2 | binds | binds
